Assay results: PubChem BioAssay AID1794845 (National Center for Advancing Translational Sciences (NCATS), 2023)
Out of some 6,900 compounds screened, fewer than 10 were called active. Calls come from the whole dose curve; as a rule, active = well fitted curve in the direction sought with a large enough effect; inconclusive = small, poorly fitted or top-dose-only effect, or another doubt; inactive = no such curve, though single readings can be large or run the other way. Some of the results follow.

The chains behind the UniProt entries cited, without tags or fusion partners. Where a name states a change or a piece, a line headed by the entry shows the natural chain unless it says otherwise.
UniProt C7C422: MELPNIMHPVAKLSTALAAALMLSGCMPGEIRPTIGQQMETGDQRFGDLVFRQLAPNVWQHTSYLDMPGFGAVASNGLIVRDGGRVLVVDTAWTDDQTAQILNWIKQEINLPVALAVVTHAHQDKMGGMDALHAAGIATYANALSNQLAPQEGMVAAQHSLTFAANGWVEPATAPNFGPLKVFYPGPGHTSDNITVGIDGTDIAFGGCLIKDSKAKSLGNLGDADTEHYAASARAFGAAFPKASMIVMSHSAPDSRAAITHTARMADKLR

What follows are compounds tested against Metallo-beta-lactamase type 2 (Klebsiella pneumoniae) (UniProt C7C422) (assay: qHTS to identify inhibitors of the New Delhi Metallo-beta-lactamase (NDM): primary screen against the NCATS Gemini Collection). Settings: NDM-1 enzyme, meropenem hydrolysis, absorbance 300 nm; at 38.4 µM (top of the series) unless noted.
Summary of the method: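 Meropenem hydrolysis (50 uM final) by 2 nM NDM-1 read as 300 nm absorbance after 30 min, following >30 min compound–enzyme preincubation in HEPES pH 7.0 with 1 uM ZnSO4 and 0.01% Tween20.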
Note: % of control where 0% means no effect.

Activity % (negative = inhibition), inactive:
NCCC(=O)N1CCCC(N2CCN(c3ccccc3F)CC2)C1 (stereo not given) 13.7%
Cc1ccsc1CN1CCCC(O)(CN(C)C)C1 (stereo not given) 0.158%
O=C(c1n[nH]c2c1CCCCCC2)N1CCc2c(nc3cc(-c4ccccc4)[nH]n3c2=O)C1 7.89%
CC1=NS(=O)(=O)N(C)C=C1C(=O)OCc1noc(-c2ccco2)n1 16.9%
CC1CCN(CCCNC(=O)C2CCc3sc(C(=O)N4CCCC4)cc3C2)CC1 (stereo not given) 4.94%
O=C(C1CCCN([S+](=O)([O-])c2cccc(C(F)(F)F)c2)C1)N1CCC(c2nc3ncccc3[nH]2)C1 (stereo not given) 3.41%
COc1ccc2c(c1)CCN=C2C[C@H]1CN(C(=O)c2ccc(F)cc2)CC[C@H]1CC(=O)O 13.3% [at 57.5 µM]
C[C@H]1[C@@H]2[C@@H](O)C([C@H](C)C(=O)NCc3cccs3)CC[C@@]2(C)CC[C@@H]1NC(=O)COc1ccccc1 (stereo not given in full) 2.8%
O=C(NCc1ccc2c(c1)CCCO2)c1ccc(C2CCNC2)cc1 (stereo not given) -3.31%
O=C(NCC1(Cn2cccn2)CC1)c1ccc(C2CCNC2)cc1 (stereo not given) -2.79%
Cc1ccccc1S(=O)(=O)N1CCCC2(C1)Nc1cccnc1NC2=NC1CCCC1 (stereo not given) 0.953%
C[C@@H]1CN(c2ccc(C(=O)N3CCC(N4CCOCC4)CC3)cn2)C[C@H](C)O1 8.83%
CC(NC(=O)CN1C(=O)NC2(CCS(=O)(=O)CC2)C1=O)c1ccccc1 (stereo not given) -16.8%
O=[S+]([O-])(c1ccccc1)N1CC(Oc2ccc(F)c(F)c2)C1 0.56%
Cn1ccc(C(=O)NCc2nnc3n2C(C(=O)NCCc2ccc(Cl)cc2)CC3)n1 (stereo not given) 9.1%
COc1c[nH]c(CN2CCN(C)C3(CCC(=O)N(C)CC3)C2)cc1=O (stereo not given) 7.56%
COCCc1ccc(OCc2ccccc2-c2ccc(=O)n(C)n2)cc1 46%
Cc1ccc(C(=O)N2CCCCCNC(=O)CC2c2ccccc2)s1 (stereo not given) 20.6%
O=C(Nc1ccccc1)O[C@@H]1CO[C@H]2[C@@H]1OC[C@@H]2NC(=S)Nc1ccc(F)cc1 -2.71% [at 57.5 µM]
FC(F)(F)CN1C2CCC1CN(c1cncc(Cl)n1)C2 -5.85%
CN1CC2(CCN(C(=O)c3cccn3C)CC2)CC(c2ccccc2)C1=O (stereo not given) 0.386%
CN(Cc1cccc(OC(F)(F)F)c1)C(=O)C1(c2ccc(Cl)cc2)CCOCC1 4.31%
O=C(c1n[nH]c2ccccc12)N1CCC(Cc2nc(-c3ccncc3)n[nH]2)CC1 -2.41%
O=C(NC1CCCC1)c1cc2cn(C3CC3)cc2s1 39.2%
Cc1ccc(NC(=O)[C@@H]2CNC[C@H](C(=O)NCc3ccccn3)C2)cn1 37.1%
CC(C)c1nc2c(c(-c3ccc(O)cc3)n1)CN(Cc1cccn1C)CC2 11.2%
Cn1nc(C2CCN(C(=O)c3ccccn3)CC2)c2c1CCOC2 -1.39%
COc1cccc(CN2Cc3cc(NC(=O)Cc4ccccc4)ccc3OCC2=O)c1 -0.433%
CN(C)S(=O)(=O)N1CC(CNC(=O)C2CC2)C2(CCCCC2)C1 (stereo not given) -1.41%
CC(C)C(=O)N1CCC2(CCC(=O)N(CC3CC3)CC2)CC1 -1.47%
Cc1[nH]cnc1CN1CCc2nc(C(=O)NCCOc3ccccc3)oc2CC1 4.31% [at 57.5 µM]
O=C(NC1CCc2nnc(C3CC3)n2CC1)c1cnco1 (stereo not given) -13%
CNc1cc(C2CC(NS(=O)(=O)c3ccc(Cl)s3)C2)nc(N)n1 (stereo not given) -3.64%
CCc1ccc(C(=O)N2CC(c3nnc(C(C)C)o3)C3(CCOCC3)C2)cc1 (stereo not given) -2.65%
O=C1COc2ccc(N3CCCC3)nc2CN1Cc1ccc(C(F)(F)F)cc1 -2.19% [at 57.5 µM]
CCCNC(=O)N1CCC(n2c(C)cnc2C2CCOCC2)CC1 -0.78%
COc1ccc(CC(=O)N2C[C@@H](CO)[C@H](c3ccccn3)C2)cc1 -0.0381%
O=C(Cc1cccs1)N1CCCn2cc(-c3ccccc3F)nc21 17%
COc1ccc(CN2CCCC(COc3ccccc3C(=O)NC3CC3)C2)c(OC)c1 (stereo not given) 2.86%
Cc1noc(C2CC3(CCN(C(=O)CCc4c[nH]c5ccccc45)CC3)CN2C)n1 (stereo not given) 1.1%
O=C(c1cc(-c2ccc(Cl)cc2Cl)c2cccn2n1)N1CCCC1 16.7%
O=c1c2c(CO)c(-c3ccccc3)nn2ccn1Cc1ccccc1 -1.76%
O=C(Nc1ccc2c(c1)OCCO2)N1CCC(Cc2nc(-c3ccncc3)n[nH]2)C1 (stereo not given) 2.28%
CCCS(=O)(=O)N1CCCC(Cc2noc(-c3cnccn3)n2)C1 (stereo not given) 11.3%
O=C(c1ccc(Cl)cc1)N1CC2(CCCN2C2COC2)Cc2ccccc21 (stereo not given) 3.87%
Cc1cccnc1NCCNC(=O)c1ccc(S(N)(=O)=O)cc1 13%
CC(C)C1CN(c2ccc(C#N)cn2)CCC(=O)N1Cc1ccc(F)cc1 (stereo not given) 4.9%
COc1nccnc1NC1CCN(C(=O)c2cccc(C)c2)CC1 -11.5%
C1CCC(c2noc(COCC3CC3)n2)NC1 (stereo not given) -1.02%
c1ccc(CN2CCc3[nH]cnc3C2c2ccc(-c3ccccn3)cc2)nc1 (stereo not given) 62%
Cc1ccccc1CN1CC2(COCC1=O)CN(c1ccc(C(F)(F)F)cn1)C2 2.42% [at 57.5 µM]
Cc1nc(C)c(C(=O)N2CCCC2c2nc(CCOCC3CCCC3)no2)s1 (stereo not given) -0.495%
CC1CCN([C@@H]2[C@H](O)[C@H](CO)O[C@@H]2CNC(=O)c2ccc(F)c(Cl)c2)CC1 -3.84%
Cc1cc(C(=O)N2CCCC[C@H](N(C)C)C2)c(-c2ccccc2)o1 9.87%
CS(=O)(=O)c1cnc(NCCn2ccnc2)nc1C1CCCNC1 (stereo not given) 20.5%
CC(C)c1cc(C(=O)N2CCn3nc(C(=O)Nc4ccccc4)cc3C2)n[nH]1 10.7%
CCC[C@H](N)C(=O)N1CCC2(CCC(=O)N(Cc3cnc(C)cn3)C2)CC1 -0.103%
Cc1nc(-c2c3n(c(=O)n(CC(=O)NCc4cccs4)c2=O)CCCCC3)no1 -1.57%
O=C(NC1CCN(c2cc(-c3cccs3)[nH]n2)C1)c1cccnc1 (stereo not given) -0.143%
CC(C)Cc1nc2nccc(-c3ccsc3)n2n1 16.6%
CN1C[C@@H](NS(=O)(=O)c2ccc(C#N)cc2)C[C@H]1c1nc(-c2ccc(Cl)cc2)no1 7.95%
C[C@H](O)c1c(-c2ccc(F)cc2)noc1C(=O)N1CCCC1 12.4% [at 57.5 µM]
NC(=O)[C@H](CC1CCCCC1)NC(=O)[C@@H]1CN(C(=O)Nc2ccccc2)CCN1C(=O)C1CCCCC1 -1.6%
CC(C)CN1CCC[C@H]1c1nc(-c2ccnc(NS(C)(=O)=O)c2)no1 5.43% [at 57.5 µM]
COCCOc1ccc(-c2noc([C@@H]3CCCN3C3CCCCC3)n2)cn1 1.62% [at 57.5 µM]
CN1CCN(CCNC(=O)c2cc(-c3ccccc3)cn2C)CC1 20.7%
CCNc1nccc(N2CCC(CC(=O)NCC(C)C)CC2)n1 0.497%
COCc1noc(-c2ccc(NC[C@H]3CCc4ccccc4O3)nc2)n1 27.2%
Cc1ccc(C(=O)N2CCC(N3CCOCC3=O)CC2)cc1 -2.85%
Cn1ccnc1C(=O)N1C[C@@H](COCC2CC2)[C@H](c2ccncc2)C1 5.46%
CN(C)CCN(C)[C@@H]1[C@H](O)[C@H](CO)O[C@@H]1CNCc1cccc(Cl)c1 4.47%
Cc1cccc(-c2nc3ccc(C(=O)NC4CCCCCC4)cc3o2)n1 29% [at 57.5 µM]
COc1cccc(-c2cccc(C(=O)N3CCN(C(C)=O)CC3)c2)c1 -0.364% [at 57.5 µM]
CC(=O)N1C[C@@H](CN(C)C)[C@H](NC(=O)Cc2ccc(OC(F)(F)F)cc2)C1 20.9%
O=C(CCCc1ccccc1)Nc1ccnn1C1CCN(C(=O)CCc2cnccn2)CC1 -0.63%
Fc1ccc2nc(CO[C@H]3CN(C4CCOCC4)C[C@H]3F)[nH]c2c1 3.56% [at 57.5 µM]
COc1cccc(-c2cccc(C(=O)N3CCN([S+](=O)([O-])c4ccc(C)cc4)CC3)c2)c1 19.2%
CN1C[C@H](NCc2nccs2)CCC[C@@H](C(=O)NC2CCOCC2)CC1=O -2.79% [at 57.5 µM]
Cc1cc(-c2cc(C(=O)NCc3c(C)cc(C)[nH]c3=O)c3c(c2)ncn3C)ccn1 32.2% [at 57.5 µM]
CC(C)NCC1(COc2ccccc2)C[C@@H](O)[C@@H](O)C1 (stereo not given in full) -0.832% [at 77.1 µM]
COCCn1ncc(N2CCCC(CC(=O)O)C2)cc1=O (stereo not given) 5.5%
CC(=O)N[C@@H]1CN(S(=O)(=O)N2CCOCC2)C[C@H]1c1ccc(C)o1 29%
C[C@]1(O)CCN(C(=O)c2cc(-c3ccsc3)n[nH]2)C[C@@H]1O 5.78%
CC(C)c1noc(-c2cn(C3CCN(C(=O)Cc4ccc(F)cc4)C3)nn2)n1 (stereo not given) -2.13%
O=C1N(Cc2ccccc2F)CCOC12CCN(Cc1ccc(F)cc1F)CC2 28% [at 57.5 µM]

Three entries out of the list, sorted by molar mass, low to high.
Activity % (negative = inhibition), inactive:
COc1cccc(-c2cccc(C(=O)N3CCN(C(C)=O)CC3)c2)c1 -0.364% [at 57.5 µM]
O=C(c1cc(-c2ccc(Cl)cc2Cl)c2cccn2n1)N1CCCC1 16.7%
Cc1nc(-c2c3n(c(=O)n(CC(=O)NCc4cccs4)c2=O)CCCCC3)no1 -1.57%
